Data taken from paper PMC6852768.
Results are given in words; binding and its absence hold for the method and conditions named. Binding seen in cells or lysates may run through a third protein. Some binding calls cover weakened binding; strength is not graded here. Where a sequence is shown, tags or fusion partners need not be part of it.

Amino acid sequences for entries named in this document (tags omitted).
UniProt Q15811: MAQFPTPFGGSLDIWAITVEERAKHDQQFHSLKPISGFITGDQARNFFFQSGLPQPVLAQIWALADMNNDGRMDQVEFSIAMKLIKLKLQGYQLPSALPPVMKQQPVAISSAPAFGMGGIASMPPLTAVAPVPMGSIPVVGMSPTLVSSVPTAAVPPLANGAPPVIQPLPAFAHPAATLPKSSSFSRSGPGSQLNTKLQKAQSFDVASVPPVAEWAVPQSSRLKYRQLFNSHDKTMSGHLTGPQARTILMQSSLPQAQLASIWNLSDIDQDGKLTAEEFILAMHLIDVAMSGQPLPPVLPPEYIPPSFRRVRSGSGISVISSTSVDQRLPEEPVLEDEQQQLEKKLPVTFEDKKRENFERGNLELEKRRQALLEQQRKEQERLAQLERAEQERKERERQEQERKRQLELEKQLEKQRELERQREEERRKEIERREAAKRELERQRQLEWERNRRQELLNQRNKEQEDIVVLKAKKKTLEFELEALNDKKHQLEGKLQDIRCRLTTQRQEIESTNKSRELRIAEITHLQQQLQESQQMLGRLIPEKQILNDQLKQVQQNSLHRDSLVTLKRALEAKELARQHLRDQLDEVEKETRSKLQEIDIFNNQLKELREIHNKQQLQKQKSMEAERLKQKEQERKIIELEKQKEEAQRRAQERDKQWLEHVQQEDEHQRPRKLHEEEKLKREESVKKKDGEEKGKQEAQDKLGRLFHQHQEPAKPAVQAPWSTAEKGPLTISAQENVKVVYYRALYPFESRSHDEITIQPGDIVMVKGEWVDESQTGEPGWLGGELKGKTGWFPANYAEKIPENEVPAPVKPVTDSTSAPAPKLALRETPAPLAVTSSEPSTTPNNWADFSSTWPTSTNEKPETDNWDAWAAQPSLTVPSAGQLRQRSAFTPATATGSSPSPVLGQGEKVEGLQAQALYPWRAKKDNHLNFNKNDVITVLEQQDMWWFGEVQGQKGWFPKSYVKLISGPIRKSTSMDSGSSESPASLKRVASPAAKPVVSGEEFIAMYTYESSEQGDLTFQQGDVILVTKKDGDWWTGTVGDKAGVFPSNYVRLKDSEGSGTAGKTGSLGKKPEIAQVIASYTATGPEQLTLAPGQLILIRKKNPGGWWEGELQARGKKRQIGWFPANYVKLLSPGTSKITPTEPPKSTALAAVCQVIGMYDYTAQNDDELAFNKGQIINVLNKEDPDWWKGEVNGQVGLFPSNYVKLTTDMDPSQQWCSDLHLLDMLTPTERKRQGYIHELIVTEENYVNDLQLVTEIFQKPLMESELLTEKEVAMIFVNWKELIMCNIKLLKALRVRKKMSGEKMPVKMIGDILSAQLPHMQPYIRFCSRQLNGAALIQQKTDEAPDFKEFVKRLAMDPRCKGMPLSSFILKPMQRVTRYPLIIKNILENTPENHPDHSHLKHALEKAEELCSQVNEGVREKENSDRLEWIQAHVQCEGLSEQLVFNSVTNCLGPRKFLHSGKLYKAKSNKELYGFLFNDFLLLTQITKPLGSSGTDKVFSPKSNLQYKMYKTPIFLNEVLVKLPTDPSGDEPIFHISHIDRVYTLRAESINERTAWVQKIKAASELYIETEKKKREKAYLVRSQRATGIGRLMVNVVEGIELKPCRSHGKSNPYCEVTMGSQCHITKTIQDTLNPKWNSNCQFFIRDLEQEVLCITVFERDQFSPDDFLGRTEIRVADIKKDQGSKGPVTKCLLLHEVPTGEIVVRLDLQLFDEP

Target: T1, FLAG-tagged GAREM2 (Grb2-associated regulator of Erk/MAPK subtype 2) (human) (UniProt Q75VX8)
T1 sequence: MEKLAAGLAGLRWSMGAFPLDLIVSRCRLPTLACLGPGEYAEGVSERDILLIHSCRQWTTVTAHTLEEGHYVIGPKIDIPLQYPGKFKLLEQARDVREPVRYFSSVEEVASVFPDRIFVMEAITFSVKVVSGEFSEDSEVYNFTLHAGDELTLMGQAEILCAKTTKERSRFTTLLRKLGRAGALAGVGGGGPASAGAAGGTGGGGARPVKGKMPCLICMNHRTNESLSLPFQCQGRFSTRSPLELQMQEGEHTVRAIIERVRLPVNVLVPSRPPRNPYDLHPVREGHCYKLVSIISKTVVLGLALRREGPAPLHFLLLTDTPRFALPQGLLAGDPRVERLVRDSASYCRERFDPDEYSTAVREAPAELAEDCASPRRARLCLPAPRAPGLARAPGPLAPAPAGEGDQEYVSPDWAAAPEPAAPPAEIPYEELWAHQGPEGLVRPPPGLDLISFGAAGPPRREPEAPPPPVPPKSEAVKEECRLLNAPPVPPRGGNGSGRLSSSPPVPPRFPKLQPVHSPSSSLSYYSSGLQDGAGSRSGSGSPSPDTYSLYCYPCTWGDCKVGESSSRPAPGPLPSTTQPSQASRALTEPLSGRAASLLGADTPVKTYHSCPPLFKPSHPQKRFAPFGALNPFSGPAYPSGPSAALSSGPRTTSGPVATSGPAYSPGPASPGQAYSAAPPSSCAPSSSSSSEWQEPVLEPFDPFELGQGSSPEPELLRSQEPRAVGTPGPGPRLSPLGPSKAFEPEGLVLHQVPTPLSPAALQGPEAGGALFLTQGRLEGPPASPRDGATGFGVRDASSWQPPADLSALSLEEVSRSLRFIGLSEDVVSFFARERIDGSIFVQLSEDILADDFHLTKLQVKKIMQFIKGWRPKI
Assay: co-IP; total cell lysate of SH-SY5Y cells stably expressing FLAG-GAREM2, precipitated with anti-FLAG affinity gel, 0-4 °C; lysis buffer 20 mM Tris-HCl pH 7.5, 1 mM EDTA, 10 mM DTT, 1% Triton X-100, 150 mM NaCl; immunoblot with anti-ITSN1, anti-ITSN2 and anti-FLAG

- binding: binds
Substance: Intersectin 1 (from UniProt Q15811 1-1721)
